# Source: PubChem BioAssay AID493014 (National Center for Advancing Translational Sciences (NCATS), 2011)
# The whole screen tested about 340,000 compounds, of which about 170 (0.05%) were called active. This list was built around the results that the source calls inconclusive (neither active nor inactive); the mix of calls is not that of the screen. The call rests on the fitted dose curve; in most records, active means well fitted inhibition curve with a large enough effect in the signal ratio, with a control signal flat (not every such curve was filed as active); inconclusive means small, poorly fitted or top-dose-only effect, or effect the other way, or a change in a side signal; inactive means flat fitted curve, though single readings scatter; the % refers to the signal ratio. Where the call is inconclusive, the potency comes from a doubtful curve fit.
# Test: qHTS Assay to Find Inhibitors of Chronic Active B-Cell Receptor Signaling;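 on activity change, negative = inhibition: plate controls were basal doxycycline-induced cells for no effect and cells given 10 µM MG132 for full effect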
# Conditions: ABC-DLBCL IkBa-CBG/CBR reporter, luminescence ratio (green luciferase fused to IkBa over red control in TMD8 lymphoma cells), 4 h; activity change, negative = inhibition: at 46.1 µM (top of the series)
# Summary of the method: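 Cell line TMD8 (human ABC DLBCL), stably expressing tet-inducible CBG68-IkBa fusion and CBR; IMDM/0.5% FBS; cpd up to 46 uM; dox induction, 4 h, 37C/5% CO2; dual luminescence; green/red ratio; MG132 control.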
# Potency means the concentration at half of the fitted maximal effect.
Structure (SMILES),"activity change, negative = inhibition",Potency
O=C(Nc1ccc2c(c1)OCCO2)c1cccc(C(=O)Nc2ccc3c(c2)OCCO3)c1,inconclusive: -11.9%,
O=C(Nc1cc(S(=O)(=O)N2CCCCC2)ccc1Cl)c1ccc(F)cc1,inactive,
CC(C)(Oc1ccc(Cl)cc1)C(=O)Nc1c2c(nn1C(C)(C)C)CS(=O)(=O)C2,inactive,
CCOc1cc(C2NC(=O)CCC2[N+](=O)[O-])cc(Br)c1OCC (centres undefined),inactive,
O=C(COC(=O)/C=C/c1cccc(F)c1)Nc1ncccn1,inconclusive: 7.46%,
O=C(CN(C(=O)CCC(=O)Nc1nccs1)c1ccccc1F)NCCc1ccccc1,inconclusive: 7.97%,
O=C(CN1C2=NCCN2c2ccccc21)c1ccc(Br)cc1,inconclusive: -15.7%,
CNC(=S)NCCCc1ccccc1,inactive,
O=C(Cc1ccccc1)NCc1ccc2c(c1)OCO2,inconclusive: 2.83%,
O=C(COC(=O)/C=C/c1ccc(OC(F)F)cc1)NC1CCCCC1,inconclusive: 4.05%,
COc1ccc(C2=NOC(C(=O)NCc3ccco3)C2)cc1 (centres undefined),,"inconclusive: 25.9 µM [falling, single point]"
COc1ccc(C(C)=O)cc1CSc1nc(NCCc2ccccc2)c2ccccc2n1,inconclusive: -16.3%,
C=CCN1C=C2C(=O)C(C)(OC(=O)C3CCCC3)C(=O)C(c3ccccc3)=C2C=C1CCCC(=O)OC (centres undefined),inactive,
COCCNCCCCOc1ccc(Br)cc1C,,"inconclusive: 29.1 µM [falling, partial curve, poor fit]"
CC1CCCN(C(=O)c2ccc(S(=O)(=O)Nc3ccccc3Cl)cc2)C1 (centres undefined),inconclusive: 9.02%,
NC(=O)c1cc2ccc(O)cc2oc1=Nc1ccccc1,,"inconclusive: 0.562 µM [falling, full curve, poor fit]"
COc1ccc(C(=O)NNc2ncnc3c2cnn3-c2cccc(Cl)c2)cc1OC,inactive,
COc1ccc(CCNC(=O)Nc2ccccc2[N+](=O)[O-])cc1,inconclusive: -18.9%,
O=C(c1cn(-c2ccccc2)nc1-c1cccc(Br)c1)N1CCOCC1,inactive,
COc1cc(Cc2ccc(N)c(OC)c2)ccc1N,inactive,
COc1cccc(OCc2nc3ncc(Br)cc3[nH]2)c1,inconclusive: -9.9%,

Structure (SMILES),"activity change, negative = inhibition",Potency
CCN(CC)c1ccc(C(=O)NCc2ccc3c(c2)CCN3C(=O)c2ccc(F)cc2)cc1,inactive,
CC1(C)CNC(=O)c2sc(NC(=O)c3ccccc3Cl)nc2C1,inconclusive: 316%,
O=C(O)C1CCN(C(=O)CCc2ccccc2)CC1,,"inconclusive: 17.8 µM [falling, partial curve, poor fit]"
CCCN1CCN(CCCNC(=O)c2ccc3nc(N4CCCCC4)sc3c2)CC1,inactive,
FC(F)(F)c1cccc(-c2nn[nH]n2)c1,inconclusive: 7.68%,
COc1ccc2nc(SC)c(C#N)cc2c1,,"inconclusive: 35.5 µM [falling, single point]"
COc1ccc(Cl)cc1NC(=O)NCC1CCN(Cc2cc(C)ccc2C)CC1,inconclusive: -18.7%,
O=C(Nc1nc(COc2ccccc2)cs1)C1CCC1,inconclusive: -29.5%,
Cc1cccc(CCNC(=O)C2CCN(S(=O)(=O)c3c(C)noc3C)CC2)c1,inconclusive: 0.186%,
COc1ccc2nc(Cl)c(C#N)cc2c1,inconclusive: 8.09%,
Clc1ccccc1Nc1nc(-c2ccncc2)nc2ccccc12,inactive,
O=C(NC1CCN(C(=O)Nc2ccccc2Cl)CC1)c1cccc(F)c1,inactive,
Cc1cccc(NC(=O)NCc2ccc3c(c2)cc(C)n3C)c1,inconclusive: 6.85%,
CC(/C=C\c1ccccc1)=C/C(=O)O,,"inconclusive: 0.501 µM [rising, full curve, poor fit]"
Cc1ccc(S(=O)(=O)CCC(=O)Nc2ccccc2C)cc1,inconclusive: -11.1%,
CC(C)c1ccc(CN2CC(C(=O)Nc3ccccc3)CC2=O)cc1 (centres undefined),inconclusive: -6.78%,
C=CC[C@H](CC(=O)N(CCO)Cc1ccccc1)C(=O)N[C@H](COC(=O)[C@@H](CC=C)CC(=O)OC(C)(C)C)c1ccccc1,inconclusive: -2.55%,
O=[N+]([O-])c1nn(-c2ccc3c(c2)OCCO3)n(O)c1=NC1CCCC1,inconclusive: 4.27%,
COc1cc(Nc2cc(C)nc3ncnn23)cc(OC)c1,inconclusive: -18.5%,
Cc1nc2ccc(N3C(=O)CCC3=O)cc2[nH]1,inconclusive: 0.557%,
C=CCn1c(-c2ccc(OC)cc2)nc2nc3ccccc3nc21,,"inconclusive: 0.651 µM [activator, full curve, poor fit]"

Structure (SMILES),"activity change, negative = inhibition",Potency
Cc1ccc(-c2c(C(=O)N/N=C/c3cccs3)nnn2-c2nonc2N)cc1,inconclusive: 2.82%,
CC(=O)Nc1ccc(/C=N/NC(=O)c2cccs2)cc1,,"inconclusive: 5.62 µM [rising, partial curve]"
Cc1occc1C(=O)NNC(=S)NCc1ccc(Cl)cc1,,"inconclusive: 11.2 µM [falling, partial curve]"
COc1cc2c(cc1OC)CN(C(=O)COc1ccc(C)c(C)c1)CC2,inconclusive: -1.29%,
COc1cccc(C(=O)Nc2nc(-c3ccc4c(c3)OCO4)cs2)c1,,"inconclusive: 23.1 µM [falling, partial curve]"
Clc1cc(Br)ccc1NCc1cccnc1,inconclusive: 4.77%,
Cc1ccc(S(=O)(=O)NCCOc2nc(N3CCOCC3)nc(N3CCOCC3)n2)cc1,inconclusive: 1.64%,
Cc1ccc(CSCCC(=O)NCc2ccc(F)cc2Cl)cc1,inconclusive: -17.9%,
CC(=O)c1cccc(NS(=O)(=O)c2cc(-c3cnc(C4CC4)o3)ccc2C)c1,,"inconclusive: 12.6 µM [falling, partial curve]"
Cc1cc(/C=C2\SC(=S)N(C)C2=O)c(C)n1-c1ccc(O)cc1,inconclusive: 25%,
C=CC1C(OC2OC(CO)C(O)C(O)C2O)OC=C(C(=O)OC)C1CC1CC(=O)CC(CC(=O)CCc2ccc(O)cc2)O1 (centres undefined),inconclusive: -1.2%,
O=S(=O)(NCC(c1ccco1)S(=O)(=O)c1cccs1)c1ccc(Cl)cc1 (centres undefined),,"inconclusive: 35.5 µM [falling, single point]"
CN(Cc1ccccc1)c1ncnc2c1nnn2C,,"inconclusive: 35.5 µM [falling, single point]"
CC(C)(C)c1cc(CN2CCN(CCO)CC2)cc(C(C)(C)C)c1O,inconclusive: 4.68%,
O=c1o[nH]c(-c2ccccc2)c1C=Nc1ccc(Cl)cc1,inconclusive: -5.66%,
NCCCCCc1nnc(SCc2cccc(Cl)c2)o1,inconclusive: -0.55%,
O=C(Nc1ccc2c(c1)OC1(CCCC1)O2)C1CC1,inconclusive: 0.12%,
O=C(Cn1cc(C(F)(F)F)cc(Cl)c1=O)NCc1ccc(F)cc1,inactive,
O=C(Nc1ccccc1[N+](=O)[O-])c1ccc(S(=O)(=O)N2CCCC2)cc1,inactive,
CCOC(=O)CC(NS(=O)(=O)Cc1ccccc1)c1ccc(C)cc1 (centres undefined),inconclusive: 2.6%,
CCOC(=S)SCc1cn2ccc(C)cc2n1,,"inconclusive: 29.1 µM [falling, single point]"

# 3 compounds already listed, sorted by number of heavy atoms, descending.
Structure (SMILES),"activity change, negative = inhibition",Potency
CC(=O)Nc1ccc(/C=N/NC(=O)c2cccs2)cc1,,"inconclusive: 5.62 µM [rising, partial curve]"
CCOC(=S)SCc1cn2ccc(C)cc2n1,,"inconclusive: 29.1 µM [falling, single point]"
Clc1cc(Br)ccc1NCc1cccnc1,inconclusive: 4.77%,

# Going on with the list:

Structure (SMILES),"activity change, negative = inhibition",Potency
CCN(CCCNC(=O)C1CCN(S(=O)(=O)CC)CC1)c1ccccc1,inactive,
NC(=O)CSc1nnc(SCc2ccc(F)cc2)s1,,"inconclusive: 17.8 µM [falling, partial curve, poor fit]"
O=C(NC(Cc1ccccc1)c1nc2ccccc2[nH]1)c1cccc([N+](=O)[O-])c1 (centres undefined),inconclusive: -1.98%,
CCCOc1ccc(-c2c(C(=O)N/N=C/c3ccc(C)cc3)nnn2-c2nonc2N)cc1,,"inconclusive: 2.82 µM [rising, partial curve, poor fit]"
CC(C)c1cccc(-c2ccc3c(c2)S(=O)(=O)c2cccc(C(=O)O)c2C3=O)c1,inconclusive: -0.518%,
CCN(CC)S(=O)(=O)c1cc(C(=O)NC2=NCCS2)ccc1Cl,inconclusive: -6.72%,
CCCC(=O)NC(=S)Nc1ccc(N2CCOCC2)c(Cl)c1,inconclusive: -0.239%,
COc1ccc(C(=O)NC(=S)NC(C)(C)C)cc1Br,inactive,
Cc1ccc2c(c1)c(CC(=O)Nc1ccc(F)cc1)c(C(=O)O)n2C,inconclusive: 13.5%,
COC(=O)COc1ccc2c(=O)c(-c3ccccc3)coc2c1,inactive,
Cc1ccc(N2CCN(C(=O)N3CCCC3)CC2)cc1Cl,inconclusive: 5.84%,
O=C(Nc1nccs1)c1ccc(CSc2nnnn2-c2ccccc2)cc1,inconclusive: 2.67%,
COc1ccc(CN=C(C#N)C2=C(O)c3ccccc3C2=O)cc1,inconclusive: -20.3%,
CCC(=O)Nc1cccc(C(=O)/C=C/c2cccs2)c1,,"inconclusive: 15.8 µM [falling, single point]"
COCCN1C(=O)CS/C1=C(/C#N)C(=O)NCc1ccco1,inactive,
O=C(OCC(=O)N1CCCCC1)c1cc2ccccc2cc1O,,"inconclusive: 22.4 µM [falling, single point]"
CCn1cc(C(=O)O)c(=O)c2cc(F)c(N3CCNCC3)cc21,,"inconclusive: 14.1 µM [rising, partial curve, poor fit]"
COc1ccc(N/C=C(\C#N)S(=O)(=O)c2ccc(OC)cc2)cc1,inconclusive: 4.52%,
COc1cccc(Oc2cnc(N)nc2-c2ccc(OC)cc2O)c1,,"inconclusive: 23.1 µM [falling, single point]"
O=C(Nc1ccccc1F)Nc1ccccc1OC(F)F,inconclusive: -4.09%,
O=C(CN1CCCC1)Nc1nc(-c2ccc3c(c2)CCN3C(=O)c2ccccc2F)cs1,,"inconclusive: 22.4 µM [falling, single point]"

# For convenience, some entries already given:
Structure (SMILES),"activity change, negative = inhibition",Potency
Cc1ccc(-c2c(C(=O)N/N=C/c3cccs3)nnn2-c2nonc2N)cc1,inconclusive: 2.82%,
CC(=O)Nc1ccc(/C=N/NC(=O)c2cccs2)cc1,,"inconclusive: 5.62 µM [rising, partial curve]"
